Where a name gives a salt, the structure may show the parent alone.

Experimental findings from patent publication US6368785B1 (Global Hemostasis Institute MGR AB, priority 1997, dated 2002) are described below.

For the series, the system named is coagulation factor VIII. As to the kind of experiment: stability of factor VIII clotting activity in stored anti-coagulated blood. It is filed as biochemical. Conditions: blood stored at room temperature.

Regarding `O=C(O)CC(O)(CC(=O)O)C(=O)O` [citrate, Tri-sodium citrate], the “Factor VIII clotting activity, % of initial activity” value was determined as 55% (at 48 hours) and 75% (first 5 hours).
